These are yes or no findings as the source states them, for the method shown. For part of these data: In cells and extracts the contact can be indirect. Some binding calls cover weakened binding; strength is not graded here.
Tests used:
[1] = target: T1, S. cerevisiae Smc6 (S. cerevisiae) (UniProt Q12749); experiment: SEC; large scale, 1 liter E. coli culture; Smc6 with C-terminal Twin-Strep tag; StrepTrap, HiTrap Heparin, then Superose 6 Increase in 10 mM Tris-HCl pH 7.5, 300 mM NaCl; peak fractions by SDS-PAGE and LC-MS/MS
T1 sequence: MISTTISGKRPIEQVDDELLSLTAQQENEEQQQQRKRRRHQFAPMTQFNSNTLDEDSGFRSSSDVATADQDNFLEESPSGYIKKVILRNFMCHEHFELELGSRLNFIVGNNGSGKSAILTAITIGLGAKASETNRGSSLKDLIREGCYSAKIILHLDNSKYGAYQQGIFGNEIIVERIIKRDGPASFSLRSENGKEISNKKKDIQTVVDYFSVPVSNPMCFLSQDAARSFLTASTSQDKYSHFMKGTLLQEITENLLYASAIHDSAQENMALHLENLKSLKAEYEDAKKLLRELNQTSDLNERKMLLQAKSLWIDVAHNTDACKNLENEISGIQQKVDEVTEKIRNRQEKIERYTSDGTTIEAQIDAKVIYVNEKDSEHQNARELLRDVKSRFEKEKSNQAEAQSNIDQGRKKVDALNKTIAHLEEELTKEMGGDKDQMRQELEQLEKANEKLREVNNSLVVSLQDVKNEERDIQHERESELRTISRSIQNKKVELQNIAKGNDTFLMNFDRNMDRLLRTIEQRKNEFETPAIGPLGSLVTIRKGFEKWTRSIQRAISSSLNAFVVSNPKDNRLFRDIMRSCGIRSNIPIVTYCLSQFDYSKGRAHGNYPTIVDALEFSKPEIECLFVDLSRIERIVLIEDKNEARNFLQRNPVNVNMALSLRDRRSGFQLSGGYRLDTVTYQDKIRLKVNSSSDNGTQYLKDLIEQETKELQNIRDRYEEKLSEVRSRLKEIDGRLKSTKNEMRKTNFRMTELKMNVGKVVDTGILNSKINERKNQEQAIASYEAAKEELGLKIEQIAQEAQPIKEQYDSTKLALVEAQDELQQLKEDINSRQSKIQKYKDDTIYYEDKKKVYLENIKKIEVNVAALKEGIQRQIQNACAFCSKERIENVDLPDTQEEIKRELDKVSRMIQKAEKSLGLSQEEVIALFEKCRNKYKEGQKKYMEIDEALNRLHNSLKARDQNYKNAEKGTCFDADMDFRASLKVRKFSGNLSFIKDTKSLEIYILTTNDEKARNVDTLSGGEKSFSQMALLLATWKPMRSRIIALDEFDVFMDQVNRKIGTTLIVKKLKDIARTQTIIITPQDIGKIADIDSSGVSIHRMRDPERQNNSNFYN

[2] = target: T2, S. cerevisiae Nse1 (S. cerevisiae) (UniProt Q07913); experiment: pull-down; S. cerevisiae Smc5/6 subunits co-expressed in E. coli Rosetta (DE3), one subunit with a Twin-Strep tag (N- or C-terminal); clarified lysate on Strep-Tactin Sepharose, 1 h at 4°C, 50 mM Tris-HCl pH 7.5, 300 mM NaCl, 5% glycerol; eluted with 2.5 mM desthiobiotin; Coomassie-stained SDS-PAGE
T2 sequence: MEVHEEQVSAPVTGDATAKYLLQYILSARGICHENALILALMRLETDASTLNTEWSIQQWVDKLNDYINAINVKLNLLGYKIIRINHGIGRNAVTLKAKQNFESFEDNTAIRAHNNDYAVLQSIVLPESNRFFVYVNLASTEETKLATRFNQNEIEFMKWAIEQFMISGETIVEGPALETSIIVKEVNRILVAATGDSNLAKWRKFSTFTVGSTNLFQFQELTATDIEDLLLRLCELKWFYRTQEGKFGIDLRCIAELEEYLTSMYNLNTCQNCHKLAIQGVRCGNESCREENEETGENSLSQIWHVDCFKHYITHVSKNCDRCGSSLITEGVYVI

[3] = target: T1, S. cerevisiae Smc6 (S. cerevisiae); experiment: as above
[4] = target: T3, S. cerevisiae Smc5 (S. cerevisiae) (UniProt Q08204); experiment: as above
T3 sequence: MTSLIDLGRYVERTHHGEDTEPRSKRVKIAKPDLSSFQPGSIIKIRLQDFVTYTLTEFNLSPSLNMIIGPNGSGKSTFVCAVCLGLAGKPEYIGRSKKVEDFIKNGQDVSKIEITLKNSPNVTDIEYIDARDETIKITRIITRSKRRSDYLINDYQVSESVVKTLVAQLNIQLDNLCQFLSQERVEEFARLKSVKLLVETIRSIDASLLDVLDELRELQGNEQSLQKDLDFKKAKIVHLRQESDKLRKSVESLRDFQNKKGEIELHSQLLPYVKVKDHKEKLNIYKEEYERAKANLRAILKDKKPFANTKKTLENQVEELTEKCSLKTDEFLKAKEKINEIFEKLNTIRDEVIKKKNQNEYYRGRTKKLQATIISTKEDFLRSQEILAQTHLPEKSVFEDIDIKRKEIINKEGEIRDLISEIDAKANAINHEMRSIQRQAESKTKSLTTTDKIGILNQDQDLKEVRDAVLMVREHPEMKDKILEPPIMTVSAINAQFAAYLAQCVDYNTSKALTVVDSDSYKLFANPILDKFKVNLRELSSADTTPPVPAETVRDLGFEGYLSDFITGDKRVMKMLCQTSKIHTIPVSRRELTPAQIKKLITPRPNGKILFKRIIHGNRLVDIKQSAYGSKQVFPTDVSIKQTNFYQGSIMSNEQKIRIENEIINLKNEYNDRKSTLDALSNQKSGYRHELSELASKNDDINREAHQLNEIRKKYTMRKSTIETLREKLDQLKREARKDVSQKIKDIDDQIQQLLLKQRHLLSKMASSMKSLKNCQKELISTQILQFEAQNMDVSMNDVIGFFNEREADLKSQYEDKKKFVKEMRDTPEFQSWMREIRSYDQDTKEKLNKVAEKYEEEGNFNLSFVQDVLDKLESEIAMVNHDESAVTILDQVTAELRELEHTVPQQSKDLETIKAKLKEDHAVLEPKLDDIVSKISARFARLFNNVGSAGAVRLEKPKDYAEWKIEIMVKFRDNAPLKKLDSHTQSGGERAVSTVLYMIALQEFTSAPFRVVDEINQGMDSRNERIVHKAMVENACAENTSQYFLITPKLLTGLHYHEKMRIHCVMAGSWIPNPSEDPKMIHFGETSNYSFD

[5] = target: T4, S. cerevisiae Nse4 (S. cerevisiae) (UniProt P43124); experiment: as above
T4 sequence: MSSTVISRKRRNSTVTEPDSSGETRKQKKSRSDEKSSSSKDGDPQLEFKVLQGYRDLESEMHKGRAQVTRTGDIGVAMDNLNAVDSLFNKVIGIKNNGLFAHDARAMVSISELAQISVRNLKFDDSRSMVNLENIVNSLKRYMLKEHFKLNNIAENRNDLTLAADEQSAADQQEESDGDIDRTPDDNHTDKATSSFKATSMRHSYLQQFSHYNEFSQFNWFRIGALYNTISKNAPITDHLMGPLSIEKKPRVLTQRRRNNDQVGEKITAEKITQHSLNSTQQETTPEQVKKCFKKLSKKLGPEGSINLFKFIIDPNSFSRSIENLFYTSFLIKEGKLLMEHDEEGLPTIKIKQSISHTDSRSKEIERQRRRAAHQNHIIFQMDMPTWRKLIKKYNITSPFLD

[6] = target: T5, S. cerevisiae Nse3 (S. cerevisiae) (UniProt Q05541); experiment: as above
T5 sequence: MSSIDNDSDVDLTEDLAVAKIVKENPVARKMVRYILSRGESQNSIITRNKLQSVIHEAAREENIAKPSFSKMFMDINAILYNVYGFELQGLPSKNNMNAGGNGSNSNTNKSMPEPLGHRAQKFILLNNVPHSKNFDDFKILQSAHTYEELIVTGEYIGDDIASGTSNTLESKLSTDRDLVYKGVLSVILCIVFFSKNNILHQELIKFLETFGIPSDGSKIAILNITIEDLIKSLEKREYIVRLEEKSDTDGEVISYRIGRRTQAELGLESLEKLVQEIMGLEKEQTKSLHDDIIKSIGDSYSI

Measured: binding

B1: S. cerevisiae Nse3 (protein, UniProt Q05541 1-303)
chain: MSSIDNDSDVDLTEDLAVAKIVKENPVARKMVRYILSRGESQNSIITRNKLQSVIHEAAREENIAKPSFSKMFMDINAILYNVYGFELQGLPSKNNMNAGGNGSNSNTNKSMPEPLGHRAQKFILLNNVPHSKNFDDFKILQSAHTYEELIVTGEYIGDDIASGTSNTLESKLSTDRDLVYKGVLSVILCIVFFSKNNILHQELIKFLETFGIPSDGSKIAILNITIEDLIKSLEKREYIVRLEEKSDTDGEVISYRIGRRTQAELGLESLEKLVQEIMGLEKEQTKSLHDDIIKSIGDSYSI
not listed: [6]
binds: all other assays above

B2: S. cerevisiae Nse1 (protein, UniProt Q07913 1-336)
chain: MEVHEEQVSAPVTGDATAKYLLQYILSARGICHENALILALMRLETDASTLNTEWSIQQWVDKLNDYINAINVKLNLLGYKIIRINHGIGRNAVTLKAKQNFESFEDNTAIRAHNNDYAVLQSIVLPESNRFFVYVNLASTEETKLATRFNQNEIEFMKWAIEQFMISGETIVEGPALETSIIVKEVNRILVAATGDSNLAKWRKFSTFTVGSTNLFQFQELTATDIEDLLLRLCELKWFYRTQEGKFGIDLRCIAELEEYLTSMYNLNTCQNCHKLAIQGVRCGNESCREENEETGENSLSQIWHVDCFKHYITHVSKNCDRCGSSLITEGVYVI
not listed: [2]
binds: all other assays above

B3: S. cerevisiae Nse4 (protein, UniProt P43124 1-402)
chain: MSSTVISRKRRNSTVTEPDSSGETRKQKKSRSDEKSSSSKDGDPQLEFKVLQGYRDLESEMHKGRAQVTRTGDIGVAMDNLNAVDSLFNKVIGIKNNGLFAHDARAMVSISELAQISVRNLKFDDSRSMVNLENIVNSLKRYMLKEHFKLNNIAENRNDLTLAADEQSAADQQEESDGDIDRTPDDNHTDKATSSFKATSMRHSYLQQFSHYNEFSQFNWFRIGALYNTISKNAPITDHLMGPLSIEKKPRVLTQRRRNNDQVGEKITAEKITQHSLNSTQQETTPEQVKKCFKKLSKKLGPEGSINLFKFIIDPNSFSRSIENLFYTSFLIKEGKLLMEHDEEGLPTIKIKQSISHTDSRSKEIERQRRRAAHQNHIIFQMDMPTWRKLIKKYNITSPFLD
not listed: [5]
binds: all other assays above

From PMC11612967
